# From PubChem BioAssay AID2283227 (EPA ToxCast)
# Where “and” joins values, the source holds several entries; their conditions need not be identical. Equal values may be shown once. Inconclusive means that the source gave no clear call. Such entries were picked first, then a sample of the others. Potencies beside an inconclusive call are fits to weak or partial responses and may not hold up. Calls of active or inactive are those of the source. Rule for the calls: active = hit-call score of the fitted dose curve at least 0.9, where 1 is the maximum; inconclusive = response in the unintended direction; inactive = score below 0.9.
# Test system: pig Methylenetetrahydrofolate Reductase (MTHFR), gene 397180
# Assay: NVS_ENZ_pMTHFR: NovaScreen (NVS) Enzymatic Assay for pig Methylenetetrahydrofolate Reductase (MTHFR)
# Description: NVS_ENZ_pMTHFR is a biochemical, single-readout assay that uses extracted gene-proteins from Porcine kidney in a tissue-based cell-free assay. Measurements were taken 1 hour after chemical dosing in a 96-well plate.NVS_ENZ_pMTHFR is one of one assay component(s) measured or calculated from the NVS_ENZ_pMTHFR assay. It is designed to make measurements of enzyme activity, a form of enzyme reporter, as detected with scintillation counting signals by Lysate-based radiodetection technology.Data from the assay component NVS_ENZ_pMTHFR was analyzed into 1 assay endpoint. This assay endpoint, NVS_ENZ_pMTHFR, was analyzed in the positive analysis fitting direction relative to DMSO as the negative control and baseline of activity. Using a type of enzyme reporter, loss-of-signal activity can be used to understand changes in the enzymatic activity as they relate to the gene MTHFR. Furthermore, this assay endpoint can be referred to as a primary readout, because this […] where this one serves a enzymatic activity function. To generalize the intended target to other relatable targets, this assay endpoint is annotated to the oxidoreductase intended target family, where the subfamily is methylenetetrahydrofolate reductase.
# Binding assays used specific radioligands (tritiated, iodinated) with non-radioactive competitive displacement ligands in agonist or antagonist protocols (as indicated) and various reference compounds and inhibitors to titrate specific binding to receptors and transporters. Most enzyme assays (CYPs, kinases, phosphatases, proteases, HDACs) used recombinant protein and specific substrates (fluorescence mostly, some colorimetric and radioactive) and inhibitors, followed by a biochemical separation of substrate and product. All assays for the biochemical HTS were initially run in duplicate at a single concentration (10 uM for CYP450 assays and 25 uM for all others). Assay-chemical combinations meeting a pre-defined threshold (e.g., 30% inhibition and other criteria defined below) were then run in singleton concentration-response format with maximum concentration of 20 uM for CYPs and 50 uM for all others. Each assay was run with positive and negative controls, and concurrent controls on every plate. The follow-up (secondary) screen tested active chemical-pairs in concentration series, as well as a few additional assays not tested in the primary screen, some selected negative inactives, and several cases re-run in the concentration series for confirmatory purposes.
Compound,AC50,outcome
CCCCOC(=O)c1ccccc1C(=O)OCCCC,inconclusive: 6.2 µM and inconclusive: 4.96 µM,–
C[C@H]1[C@H](c2ccc(Cl)cc2)SC(=O)N1C(=O)NC1CCCCC1,inconclusive: 6.59 µM,–
CCCCOCN(C(=O)CCl)c1c(CC)cccc1CC,–,inactive
COc1cnc(OC)n2nc(NS(=O)(=O)c3c(OCC(F)F)cccc3C(F)(F)F)nc12,inconclusive: 0.0246 µM,–
COC(=O)c1c(C(F)F)nc(C(F)(F)F)c(C2=NCCS2)c1CC(C)C,active: 6.46 µM,–
CC(C)(C)C(O)C(Oc1ccc(Cl)cc1)n1cncn1 (stereo unspecified),inconclusive: 25 µM,–
CCc1cccc(CC)c1N(COC)C(=O)CCl,–,inactive
N#Cc1c[nH]cc1-c1cccc2c1OC(F)(F)O2,–,inactive
CSc1nnc(C(C)(C)C)c(=O)n1N,inconclusive: 0.498 µM,–
Nc1cnn(-c2ccccc2)c(=O)c1Cl,inconclusive: 25 µM,–
CCNc1nc(Cl)nc(NC(C)C)n1,inconclusive: 0.0877 µM,–
